In paper PMC7729032, “Interaction interface in the C-terminal parts of centriole proteins Sas6 and Ana2” (Open Biology, 2020) one finds binding data, which are given here for five molecules.

Experiment [1] deals with T1, GST-tagged Ana2 wild-type (Drosophila) (UniProt Q9XZ31).
T1 sequence: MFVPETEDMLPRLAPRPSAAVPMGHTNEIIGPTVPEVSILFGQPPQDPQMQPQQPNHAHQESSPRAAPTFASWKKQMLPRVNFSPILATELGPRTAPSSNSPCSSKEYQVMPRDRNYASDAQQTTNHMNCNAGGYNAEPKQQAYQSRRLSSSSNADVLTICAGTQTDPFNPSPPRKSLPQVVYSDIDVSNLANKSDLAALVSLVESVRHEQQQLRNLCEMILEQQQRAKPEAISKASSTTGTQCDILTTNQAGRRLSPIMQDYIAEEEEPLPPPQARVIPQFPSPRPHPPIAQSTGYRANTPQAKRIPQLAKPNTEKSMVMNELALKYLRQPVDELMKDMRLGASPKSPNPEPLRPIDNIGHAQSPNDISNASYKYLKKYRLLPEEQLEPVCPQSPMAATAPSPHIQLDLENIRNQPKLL
Description: pull-down; bait from lysate on Glutathione-Sepharose 4B, washed; lysate with MBP-tagged prey added, 1 h at 4°C; washes in 20 mM Tris–HCl pH 7.5, 250 mM NaCl, 5% glycerol, 1 mM DTT, 0.5% Triton; SDS–PAGE with PageBlue staining; only the target purified.

The target of experiment [2] is T2, GST-tagged Ana2-4D (phosphomimetic Ana2) (Drosophila) (UniProt Q9XZ31).
T2 sequence: T1 sequence with S318D, S365D, S370D, S373D
The description is as above.

The target in another experiment is T3, MBP-Sas6 wild-type (Drosophila, UniProt Q9VAC8 1-472).
T3 construct: Sas6, Drosophila, wild type; MBP from destination vector pKM596 (Gateway); No cleavage of MBP is described; also called Sas6-wt; source: E. coli Rosetta(DE3); in lysate (pull-down); purified on amylose resin and SEC (SEC, HDX-MS)
T3 sequence (looked up): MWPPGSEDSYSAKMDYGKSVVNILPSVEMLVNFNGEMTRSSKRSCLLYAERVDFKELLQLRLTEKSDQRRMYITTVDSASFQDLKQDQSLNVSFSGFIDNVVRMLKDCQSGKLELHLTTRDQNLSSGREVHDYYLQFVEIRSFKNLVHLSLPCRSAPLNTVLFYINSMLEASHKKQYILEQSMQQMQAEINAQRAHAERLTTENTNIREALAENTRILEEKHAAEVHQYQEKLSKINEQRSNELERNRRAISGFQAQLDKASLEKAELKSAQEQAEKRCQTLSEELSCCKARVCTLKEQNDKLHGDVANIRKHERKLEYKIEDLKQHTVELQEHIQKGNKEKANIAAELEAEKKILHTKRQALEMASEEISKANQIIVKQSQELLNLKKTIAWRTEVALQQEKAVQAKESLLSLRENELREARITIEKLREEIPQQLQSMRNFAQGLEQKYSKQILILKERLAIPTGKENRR
Described as above.

In experiment [3] the target is 69 aa Ana2-4D STAN motif fragment (Drosophila). Description: HDX-MS; protein alone against SEC-purified complex; exchange in D2O buffer for 10 s, 1 or 5 min on ice; both purified.
Experiment [4] concerns the target Gorab (bait, on glutathione resin). The experiment in a line: pull-down; bait from lysate on Glutathione-Sepharose 4B, washed; lysate with MBP-tagged prey added, 1 h at 4°C; washes in 20 mM Tris–HCl pH 7.5, 250 mM NaCl, 5% glycerol, 1 mM DTT, 0.5% Triton; SDS–PAGE with PageBlue staining; only the target purified.

Changes are numbered by the printed parent chain. Results are given in words; binding and its absence hold for the method and conditions named. For some of these results: Binding can be weak; no strength is given. Tags and fused reporters may be left off the sequences shown. For some of these results: In cells and extracts the contact can be indirect.

As for Gorab (prey, MBP-tagged), the binding entry is reported as “no binding” in experiment [1], “no binding” in experiment [2] and “binds” in the experiment with MBP-Sas6 wild-type. As to “Sas6–Gorab complex (Drosophila | not stated)”, the binding entry in experiment [2] was “binds”.

B1: MBP-Sas6 wild-type (protein, UniProt Q9VAC8 1-472)
chain: T3 sequence (looked up)
On to B1, for which, in experiment [3], the binding result is given as “binds”.

B2: MBP-Ana2-4D (natural protein, Drosophila, UniProt Q9XZ31 1-420, looked up)
chain: T1 sequence with S318D, S365D, S370D, S373D
notes: Ana2, Drosophila; STAN motif serines 318, 365, 370 and 373 substituted by aspartic acid; MBP from destination vector pKM596; As prey against Gorab bait the MBP tag follows from the general methods of the pull-down; also called Ana2-4D-FL; source: E. coli Rosetta(DE3); purified on amylose resin and SEC (SEC, HDX-MS); in lysate (pull-down prey)
Turning to B2, the binding result in experiment [4] was “no binding”.

B3: Ana2-wt (prey, MBP-tagged) (protein, UniProt Q9XZ31 1-420)
chain: T1 sequence
With B3, the binding result in experiment [4] is recorded as “no binding”.
